Patent publication US20110104167A1, “Compositions and Methods for Diagnosing and Treating Insulin Resistance” (YEDA RESEARCH AND DEVELOPMENT CO. LTD., priority 2004, published 2011)
These are yes or no findings as the source states them, for the method shown. Some results given as binding are weak or reduced against the parent protein; the word gives no strength.

Sequences of proteins named here, by UniProt entry; tags and fusion partners are left off. Residues count along the entry.
UniProt P15127, residues 27-1383: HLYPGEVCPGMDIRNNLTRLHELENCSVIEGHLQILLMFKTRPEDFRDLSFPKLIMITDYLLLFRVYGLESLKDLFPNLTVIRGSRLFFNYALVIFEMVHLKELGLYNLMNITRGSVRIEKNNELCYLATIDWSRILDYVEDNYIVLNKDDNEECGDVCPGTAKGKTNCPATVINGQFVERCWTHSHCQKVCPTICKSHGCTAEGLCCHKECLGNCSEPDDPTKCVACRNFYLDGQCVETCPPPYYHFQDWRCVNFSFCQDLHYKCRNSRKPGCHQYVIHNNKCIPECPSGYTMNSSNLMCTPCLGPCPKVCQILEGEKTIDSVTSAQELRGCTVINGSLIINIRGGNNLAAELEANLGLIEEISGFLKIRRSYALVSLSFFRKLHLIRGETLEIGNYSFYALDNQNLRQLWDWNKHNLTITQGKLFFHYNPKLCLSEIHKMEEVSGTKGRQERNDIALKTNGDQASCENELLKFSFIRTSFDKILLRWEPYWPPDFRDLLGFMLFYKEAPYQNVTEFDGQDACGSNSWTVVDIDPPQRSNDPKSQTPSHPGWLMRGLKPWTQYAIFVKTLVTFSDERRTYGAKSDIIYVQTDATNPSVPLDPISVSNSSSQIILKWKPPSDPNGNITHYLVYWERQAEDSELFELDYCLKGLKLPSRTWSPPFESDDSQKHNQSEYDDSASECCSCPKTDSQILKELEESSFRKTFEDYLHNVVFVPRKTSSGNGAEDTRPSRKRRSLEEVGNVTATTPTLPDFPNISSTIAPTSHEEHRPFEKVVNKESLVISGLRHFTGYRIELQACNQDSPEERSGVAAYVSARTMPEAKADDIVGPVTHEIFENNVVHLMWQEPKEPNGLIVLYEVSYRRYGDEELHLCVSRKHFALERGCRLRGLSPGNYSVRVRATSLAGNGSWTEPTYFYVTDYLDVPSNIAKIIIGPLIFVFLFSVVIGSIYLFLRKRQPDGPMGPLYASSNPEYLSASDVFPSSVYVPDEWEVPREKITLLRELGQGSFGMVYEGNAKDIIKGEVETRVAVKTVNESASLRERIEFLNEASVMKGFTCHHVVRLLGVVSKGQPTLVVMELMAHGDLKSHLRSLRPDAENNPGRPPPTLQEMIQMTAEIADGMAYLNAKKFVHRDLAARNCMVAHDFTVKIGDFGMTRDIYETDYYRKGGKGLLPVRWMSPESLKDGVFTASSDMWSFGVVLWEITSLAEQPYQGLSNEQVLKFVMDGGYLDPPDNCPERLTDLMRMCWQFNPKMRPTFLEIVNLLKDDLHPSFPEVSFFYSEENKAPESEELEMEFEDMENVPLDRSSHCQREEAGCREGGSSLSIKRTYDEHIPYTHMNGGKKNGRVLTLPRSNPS

What was measured:
[1] = molecular target: insulin receptor (IR) of Fao rat hepatoma cells (rat (Fao rat hepatoma cells)) (UniProt P15127); experiment: in vitro binding of IRS-1 from cell extracts to WGA-immobilised IR, immunoblot; cells treated with insulin for 60 min
[2] = molecular target: insulin receptor (IR) of Fao rat hepatoma cells (rat (Fao rat hepatoma cells)) (UniProt P15127); experiment: discussion of the in vitro IR binding assay
[3] = molecular target: insulin receptor (IR) of Fao rat hepatoma cells (rat (Fao rat hepatoma cells)) (UniProt P15127); experiment: in vitro binding of IRS-1 from cell extracts to WGA-immobilised IR, immunoblot

Measured: binding

IRS-1^7A (mouse IRS-1 with S265, S302, S325, S336, S358, S407 and S408 mutated to Ala, stably overexpressed in CHO-T cells) (from UniProt P35569 1-1233)
binds: all assays above
